Results on two molecules are retold here after doi:10.1101/2025.06.10.658772 (bioRxiv, 2025).

The chains behind the UniProt entries cited, without tags or fusion partners.
UniProt P32121: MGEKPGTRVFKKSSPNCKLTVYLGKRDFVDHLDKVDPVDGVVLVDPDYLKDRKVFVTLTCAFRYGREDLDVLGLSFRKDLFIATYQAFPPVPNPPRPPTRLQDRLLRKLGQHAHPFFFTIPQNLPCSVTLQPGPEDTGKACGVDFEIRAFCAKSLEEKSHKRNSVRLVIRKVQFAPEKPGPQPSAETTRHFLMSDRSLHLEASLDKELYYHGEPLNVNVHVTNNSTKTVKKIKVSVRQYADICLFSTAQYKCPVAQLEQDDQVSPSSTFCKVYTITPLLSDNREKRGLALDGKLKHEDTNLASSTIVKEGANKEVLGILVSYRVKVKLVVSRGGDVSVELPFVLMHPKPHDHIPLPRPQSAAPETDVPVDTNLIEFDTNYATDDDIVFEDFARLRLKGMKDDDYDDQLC

No constants are given. Whether binding was seen depends on the method and setting. Binding seen in cells or lysates may run through a third protein. Some results given as binding are weak or reduced against the parent protein; the word gives no strength. For some assays here: Where a sequence is shown, tags or fusion partners need not be part of it.

Assay [1] has as its target C-terminally large NanoLuc fragment (LgBiT)-fused Dr-GPR25 (zebrafish (Danio rerio)). The assay is described as follows: split reporter.
Assay [2] addresses N-terminally secretory LgBiT (sLgBiT)-fused Dr-GPR25 (zebrafish (Danio rerio)). As to the kind of experiment: split reporter.

In the case of “N-terminally SmBiT-fused human β-arrestin 2 (ARRB2) (from UniProt P32121 1-409)”, the binding result in assay [1] is on record as “binds”.

B1: N-terminally 6×His-tagged wild-type (WT) human CXCL17 (ligand)
chain: SSLNPGVARGHRDRGQASRRWLQEGGQECECKDWFLRAPRRKFMTVSGLPKKQCPCDHFKGNVKKTRHQRHHRKPNKHSRACQQFLKQCQLRSFALPL
B1: in assay [2], the binding result is listed as “binds”.
